Assay results: PMC7819943, “Rice protein-binding microarrays: a tool to detect cis-acting elements near promoter regions in rice”
The list shows a part of the results.

What follows are sequences tested against T1, OsSMF1 (Oryza sativa, UniProt Q6ZLB0 1-436) (assay: protein-binding microarray (RPBM); PBS, 2% BSA, 51.3 ng/ul salmon testes DNA, 50 uM zinc acetate, 200 nM TF, 25 C, 1 h; high values mean tight binding). Conditions: protein: recombinant; tags: N-terminal polyhistidine and DsRed monomer fusion (pET32a); chain copies: 2; label: CyDye5-dUTP incorporated in the synthesized complementary strand; 3' TTTTT single-stranded linker to array surface; dsDNA, one strand shown.
T1 sequence: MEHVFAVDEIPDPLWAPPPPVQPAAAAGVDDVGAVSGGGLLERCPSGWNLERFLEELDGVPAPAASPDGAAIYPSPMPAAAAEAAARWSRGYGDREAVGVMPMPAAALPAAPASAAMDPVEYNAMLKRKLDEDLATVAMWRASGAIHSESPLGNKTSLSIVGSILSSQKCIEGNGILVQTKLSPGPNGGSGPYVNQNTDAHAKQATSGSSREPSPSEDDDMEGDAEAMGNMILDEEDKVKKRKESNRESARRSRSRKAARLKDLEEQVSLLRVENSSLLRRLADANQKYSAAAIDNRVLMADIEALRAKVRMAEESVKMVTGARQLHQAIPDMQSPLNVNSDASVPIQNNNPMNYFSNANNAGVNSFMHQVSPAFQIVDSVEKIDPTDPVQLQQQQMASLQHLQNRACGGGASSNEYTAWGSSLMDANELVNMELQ
In short: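 A custom Agilent array was converted to double-stranded form by primer extension with Cy5-dUTP and blocked with 2% BSA. Protein at 200 nM in PBS with 2% BSA, salmon testes DNA and 50 µM zinc acetate was applied for 1 h at 25 °C, followed by washing. The proteins were polyhistidine–DsRed N-terminal fusions of transcription factors, expressed in E. coli BL21-CodonPlus and Ni–NTA-purified. The binding signal is per-feature fluorescence intensity (arbitrary units) from an Axon 4000B scanner.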
“CGGCAAGTGATAGGGTTGTATCTAGGGTTAGTACTACTGGCGGAGTCACCTAGTGCAG” was tested, and the binding signal was 4260 fluorescence intensity (a.u.).
For “ATAGAGTAAGTTGTTCCCCACTAACGTCAGCTAGCGAGCGCGGAGTCACCTAGTGCAG”, the binding signal was 5400 fluorescence intensity (a.u.).
“AGATCCATGTCAGCATATTTTCCTACTTGGAAGAGATTAACGGAGTCACCTAGTGCAG” was tested, and the binding signal was 6110 fluorescence intensity (a.u.).
“CTCGCGGGATCTCGCGTGTTTCGGTGGAGGGGATTGCGGCCGGAGTCACCTAGTGCAG” was tested, and the binding signal was 3430 fluorescence intensity (a.u.).
In the case of “CAGGAGGTGGAACTCCGAGAGGCTGGACCTGGACGCGGTGCGGAGTCACCTAGTGCAG”, the binding signal is reported as 25200 fluorescence intensity (a.u.).
In the case of “TAGTAACCTCTTTCTTCTTCCATCCATCGCCGCCGCCGCCCGGAGTCACCTAGTGCAG”, the binding signal is reported as 8370 fluorescence intensity (a.u.).
“ACAGTAGGGGACTGCTGATCGGCGACTGACCGCGCGCGCCCGGAGTCACCTAGTGCAG” was tested, and the binding signal was 4560 fluorescence intensity (a.u.).
With “CGGAAAAGAAAGCCATGGAAGAAATGACGCAAGCAGCGGACGGAGTCACCTAGTGCAG” the binding signal was 4230 fluorescence intensity (a.u.).
“ATGATAAAAGGAGGTTAACCTGTGACCACATCATCTGCACCGGAGTCACCTAGTGCAG” was tested, and the binding signal was 4400 fluorescence intensity (a.u.).
With “TACACCAAATTGACTAGGCATATATTTGTACCACTCATTCCGGAGTCACCTAGTGCAG” the binding signal was 5060 fluorescence intensity (a.u.).
“ACATATGGTCTTTTGGTCACCTCCACTGCTGACTAGGCATCGGAGTCACCTAGTGCAG” was tested, and the binding signal was 21000 fluorescence intensity (a.u.).
In the case of “ACGGGCGGGCGTACGACGTCACACGTGCACCCACGCGCCGCGGAGTCACCTAGTGCAG”, the binding signal is reported as 7350 fluorescence intensity (a.u.).
For “AAAATATTATGGGTCCCACTGATTATGTGGGACCCACATGCGGAGTCACCTAGTGCAG”, the binding signal was 3550 fluorescence intensity (a.u.).
“TCTGATGGATCAGCATGCACGTAGTGTACACGTCACTCCACGGAGTCACCTAGTGCAG” was tested, and the binding signal was 21200 fluorescence intensity (a.u.).
With “TCTCAACCCTCAGGTAATCTACTGCTGCGCGTGGTGAATCCGGAGTCACCTAGTGCAG” the binding signal was 4080 fluorescence intensity (a.u.).
“TTGACTGTGGGACACACGTGTCAGAGAGTGACCTGCGTCTCGGAGTCACCTAGTGCAG” was tested, and the binding signal was 11300 fluorescence intensity (a.u.).
“TCATCGTGGACACGTACCCTCGTGCATGCGCGCATGGTGTCGGAGTCACCTAGTGCAG” was tested, and the binding signal was 5950 fluorescence intensity (a.u.).
With “TTGTGACCAAATAAGTTCTGCTTCTTTGGTAACTTTATTCCGGAGTCACCTAGTGCAG” the binding signal was 14000 fluorescence intensity (a.u.).
With “CCGCCAACACCTCACCCGCCGCCAACCACGACCGCGCGGCCGGAGTCACCTAGTGCAG” the binding signal was 31900 fluorescence intensity (a.u.).
With “AACCCACCTATCTTGTTTTCCACGTGTACGCTTTTCAAACCGGAGTCACCTAGTGCAG” the binding signal was 9970 fluorescence intensity (a.u.).
For “CGCGAGGTGACGCTGACGCGTCCATCGCGCACGACATCGCCGGAGTCACCTAGTGCAG”, the binding signal was 9000 fluorescence intensity (a.u.).
For “GCAGCACTCACAGCTCGACACGTGTCCCGCATCACGTGTCCGGAGTCACCTAGTGCAG”, the binding signal was 8430 fluorescence intensity (a.u.).
With “AGAAGAGGGAGACAGAGGATAGAGAGAAGAGGGCACTTCACGGAGTCACCTAGTGCAG” the binding signal was 11900 fluorescence intensity (a.u.).
With “ACACCTATATCTCCTAGCTAGGACTCATAGGTGGCAGCTCCGGAGTCACCTAGTGCAG” the binding signal was 3850 fluorescence intensity (a.u.).
With “CATCTTACTCTAGCTTCTCCATTCCAAAATTCACCACCGCCGGAGTCACCTAGTGCAG” the binding signal was 23000 fluorescence intensity (a.u.).
In the case of “TAGTTTTAAGAAATATATAATTTATGGCGTGCAACTCCTACGGAGTCACCTAGTGCAG”, the binding signal is reported as 3660 fluorescence intensity (a.u.).
For “TCAATGAGCCATGTAGGACAAACTCAATCATGCGATTAGTCGGAGTCACCTAGTGCAG”, the binding signal was 3250 fluorescence intensity (a.u.).
In the case of “GAGGTAAGAGCATGTGAACCTATACCTGCGGAGCAACCGCCGGAGTCACCTAGTGCAG”, the binding signal is reported as 3870 fluorescence intensity (a.u.).
For “GATGTCATGCATGCATGTATATATTTCAATCGACTTTGGTCGGAGTCACCTAGTGCAG”, the binding signal was 6410 fluorescence intensity (a.u.).
With “TGGTGACGGTGACTCCAACCCTGACATATACACGCAATACCGGAGTCACCTAGTGCAG” the binding signal was 5120 fluorescence intensity (a.u.).
“TTAACAGTTGGTTACTAGTCCTAATTAATTCAGTAGCAATCGGAGTCACCTAGTGCAG” was tested, and the binding signal was 4700 fluorescence intensity (a.u.).
In the case of “GCAGCCATTTACGCTTTCCACGTCAGTGCATGATGGAGTACGGAGTCACCTAGTGCAG”, the binding signal is reported as 16800 fluorescence intensity (a.u.).
“AGAGGGAAGCCACGGTTCACGCTGGCCAAGCACCCCACGCCGGAGTCACCTAGTGCAG” was tested, and the binding signal was 3560 fluorescence intensity (a.u.).
For “AATAGATTTTCTAACCAATGATCATAAGACAGTATGTGGTCGGAGTCACCTAGTGCAG”, the binding signal was 3760 fluorescence intensity (a.u.).
In the case of “CGACGCGGCCAGCGGCGGCGGCCCCAGAGATGACGCGCGTCGGAGTCACCTAGTGCAG”, the binding signal is reported as 3390 fluorescence intensity (a.u.).
In the case of “TTCCCAGTCCTCTTCCCTTGACACGAGCTTTCCAAATTTCCGGAGTCACCTAGTGCAG”, the binding signal is reported as 3960 fluorescence intensity (a.u.).
“CCGCCGCGGCCACTGACGAGGACCGCGAGCTCCTCCGTCCCGGAGTCACCTAGTGCAG” was tested, and the binding signal was 3230 fluorescence intensity (a.u.).
With “GACGCGTGCCCCTTCTCCATCCCCTATCTGACCATCAGCGCGGAGTCACCTAGTGCAG” the binding signal was 3170 fluorescence intensity (a.u.).
In the case of “GAACTAGTCCAGTGTGTCCAGTCTGGCTCCCTTCGTCTCCCGGAGTCACCTAGTGCAG”, the binding signal is reported as 3480 fluorescence intensity (a.u.).
In the case of “GCAGTATTTACATCAATATTACGTGGATTTAGCCTAAAAGCGGAGTCACCTAGTGCAG”, the binding signal is reported as 6780 fluorescence intensity (a.u.).
“TTTTGACTTTCGCATGATCACATCAAATCCAGCGGAGCCGCGGAGTCACCTAGTGCAG” was tested, and the binding signal was 3510 fluorescence intensity (a.u.).
In the case of “CAATGGCGGCTGGGATCTGATCTTATGTGATGCCATATTTCGGAGTCACCTAGTGCAG”, the binding signal is reported as 3490 fluorescence intensity (a.u.).
With “TGTGTCGTACGTCACGGCCCACGTCATCATCATACCGTTTCGGAGTCACCTAGTGCAG” the binding signal was 37000 fluorescence intensity (a.u.).
In the case of “AAATTGATATTGCATGCCTTTTATATGAGGTGCCACGTCACGGAGTCACCTAGTGCAG”, the binding signal is reported as 27000 fluorescence intensity (a.u.).
With “CACGCCGCCAGGCCGGGCCCATCTGGCTTAACCACGCCCGCGGAGTCACCTAGTGCAG” the binding signal was 3620 fluorescence intensity (a.u.).
For “GGGTGATGATGTGGCATATTTGCATGTGATTTACTCTATACGGAGTCACCTAGTGCAG”, the binding signal was 13400 fluorescence intensity (a.u.).
In the case of “TGGATGACCTGGTACATGGGCGTGATCCCGCTCCCGCCGGCGGAGTCACCTAGTGCAG”, the binding signal is reported as 3340 fluorescence intensity (a.u.).
In the case of “CAAGATGCATGAGGCCGCACGACCTTAAAGTTCAACGTGGCGGAGTCACCTAGTGCAG”, the binding signal is reported as 3140 fluorescence intensity (a.u.).
With “TTATAACACAAAACACATATGAAGCGCACTCTACCACGCACGGAGTCACCTAGTGCAG” the binding signal was 32200 fluorescence intensity (a.u.).
“TGTGATCACTTTTGCTTACATGGATGGTGAGAGTGCTCCCCGGAGTCACCTAGTGCAG” was tested, and the binding signal was 3630 fluorescence intensity (a.u.).
With “TGAACTCCTAATACTGTCCTACCACTTCTACATGTCTTCTCGGAGTCACCTAGTGCAG” the binding signal was 28700 fluorescence intensity (a.u.).
For “ATTTTGCGTGCGTGTAGGATTTGTTCCCAAACACCACATGCGGAGTCACCTAGTGCAG”, the binding signal was 5820 fluorescence intensity (a.u.).
For “CCGCCGCTCGCTCCCCACGGATGGCCGTAGGGGAGAAGGACGGAGTCACCTAGTGCAG”, the binding signal was 36200 fluorescence intensity (a.u.).
“GTAATGGCCCTGTCTGACTCATTCACCAAACCCCTGAATTCGGAGTCACCTAGTGCAG” was tested, and the binding signal was 3190 fluorescence intensity (a.u.).
